Results from patent US11578085B2, “Heterocycle-substituted bicyclic azole pesticides” (FMC CORPORATION, priority 2013, dated 2023).
Some results were stated once for a whole list of compounds, not compound by compound. For at least one compound, name, drawing or mass did not settle the structure.

Legend:
[1] = system: green peach aphid (Myzus persicae (Sulzer)); test: Test C: control of green peach aphid on radish plant (spray, contact and/or systemic); type: in vivo; conditions: assessed after 6 days
Procedure: (§1) Test compounds were formulated using a solution containing 10% acetone, 90% water and 300 ppm X-77® Spreader Lo-Foam Formula non-ionic surfactant containing alkylarylpolyoxyethylene, free fatty acids, glycols and isopropanol (Loveland Industries, Inc. Greeley, Colo., USA). The formulated compounds were applied in 1 mL of liquid through a SUJ2 atomizer nozzle with 1/8 JJ custom body (Spraying Systems Co. Wheaton, Ill., USA) positioned 1.27 cm (0.5 inches) above the top of each test unit. Test compounds were sprayed at the rates indicated, and each test was replicated three times.
For evaluating control of green peach aphid (Myzus persicae (Sulzer)) through contact and/or systemic means, the test unit consisted of a small open container with a 12-15-day-old radish plant inside. This was pre-infested by placing on a leaf of the test plant 30-40 aphids on a piece of leaf excised from a culture plant (cut-leaf method). The aphids moved onto the test plant as the leaf piece desiccated. After pre-infestation, the soil of the test unit was covered with a layer of sand.
Test compounds were formulated and sprayed at 250 and/or 50 ppm. After spraying of the formulated test compound, each test unit was allowed to dry for 1 hour and then a black, screened cap was placed on top. The test units were held for 6 days in a growth chamber at 19-21° C. and 50-70% relative humidity. Each test unit was then visually assessed for insect mortality.

[2] = system: cotton melon aphid (Aphis gossypii (Glover)); test: Test D: control of cotton melon aphid on cotton plant (spray, contact and/or systemic); type: in vivo; conditions: sprayed at 250 ppm; assessed after 6 days
Procedure: as §1
For evaluating control of cotton melon aphid (Aphis gossypii (Glover)) through contact and/or systemic means, the test unit consisted of a small open container with a 6-7-day-old cotton plant inside. This was pre-infested with 30-40 insects on a piece of leaf according to the cut-leaf method, and the soil of the test unit was covered with a layer of sand.
Test compounds were formulated and sprayed at 250 and/or 50 ppm. After spraying, the test units were maintained in a growth chamber for 6 days at 19° C. and 70% relative humidity. Each test unit was then visually assessed for insect mortality.

| Structure (SMILES) | mortality ([1]; sprayed at 50 ppm) | mortality ([1]; sprayed at 250 ppm) | mortality [2] |
| --- | --- | --- | --- |
| CC(C)NC(=O)C(C)NC(=O)c1cccc2nn(-c3cccnc3)cc12 (stereo not drawn) [Compound 7] | at least 80% | at least 80% | at least 80% |
| O=C(NCc1nccs1)c1ccc2nn(-c3cccnc3)cc2c1 [Compound 40] | – | – | at least 80% |
| CN(C)C(=O)c1cccc2nc(-c3cccnc3)sc12 [Compound 79] | – | at least 80% | at least 80% |
